This is an account of results in patent US20200289554A1, “BIOORTHOGONAL COMPOUNDS COMPRISING A PROPARGYL GROUP FOR TREATING CANCER” (THE UNIVERSITY COURT OF THE UNIVERSITY OF EDINBURGH, priority 2016, published 2020).

The subject of this experiment is U87G cells. Nature of the experiment: Prodrug safety dose-response cell viability (PrestoBlue), U87G. The experiment is classed as cell-based. The following applies: Homo sapiens, 120 h, 5 days, no catalyst. The text has this:
Human lung adenocarcinoma A549 cells, human glioblastoma U87G cells and T98 cells were chosen as models for the Vorinostat and Panobinostat antiproliferative studies; A549 cells, human prostate carcinoma DU145 cells and T98 cells were chosen as models for Doxorubicin; human pancreatic carcinoma MiaPaCa2 cells were chosen as a model for Gemcitabine; human pancreatic adenocarcinoma BxPC3 and human colorectal carcinoma HCT116 cells were chosen as models for 5FU; human glioblastoma U87G cells were chosen as models for the SN-38 and Etoposide antiproliferative studies; and human ovarian carcinoma A2780 cells were chosen as model for Olaparib. These cell lines were selected as these are primary malignancies against which the parental drugs are currently prescribed.
The toxicities of each active agent and prodrugs were compared by performing dose-response studies. […] Cell viability was analysed by fluoresce intensity (λex=540 nm; λem=590 nm) after 60-90 min incubation with PrestoBlue™ Reagent (Life Technologies).

One may read the EC50 as the concentration at which the effect is half-maximal. As for `O=C(CCCCCCC(=O)Nc1ccccc1)NO` [Vorinostat, reference compound], the EC50 came to 11 µM.
